Data as given in PubChem BioAssay AID743454 (Peter MacCallum Cancer Centre, 2014).
The whole screen tested about 18,000 reagents; below is a random part of them. Of all reagents, 450 (2.5%) are marked active. 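Single biological run; no consistent viability z cut-off exists, so the class columns, not z-scores, define the calls.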

Screen: 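Knock-downs lowering viability or raising caspase 3/7 activity in vorinostat-treated resistant cells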 (primary screen)
Cell system: human HCT116-VR colon cancer cells, selected for vorinostat resistance
Reagents: siRNA pool against human genes, 40 nM siRNA pool
Duration: vorinostat for 24 h, read-out about 72 h after transfection
Conditions: vorinostat at 2.5 µM final
Measured: 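Two measures, CellTiter-Fluor viability and luminescent caspase 3/7 activity, each as fold change against same-plate mock wells, mean of duplicates, then screen-wide robust z-score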
Reading the numbers: viability robust z-score: higher = more viable cells than screen typical; caspase robust z-score: higher = more caspase 3/7 activity than screen typical
Rule for the call: 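a knock-down is a hit when classed RV1 or RV2 for lowered viability, or CA1 or CA2 for caspase activation; those lethal without drug were dropped; hits were retested singly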

TSLIG2 gave viability hit class no change; caspase hit class no change; viability robust z-score -1.01; caspase robust z-score 2.72; inactive. Against TDRKH, the values are viability hit class no change; caspase hit class no change; viability robust z-score 1.11; caspase robust z-score -0.36; inactive. EMSY showed viability hit class no change; caspase hit class no change; viability robust z-score -0.02; caspase robust z-score -1.17; inactive. Against CRYGA, the values are viability hit class no change; caspase hit class no change; viability robust z-score -0.23; caspase robust z-score -0.14; inactive. For LOC284009 the deposit lists viability hit class no change; caspase hit class no change; viability robust z-score 0.82; caspase robust z-score 0.08; inactive. Knock-down of SCNM1 gave: viability hit class no change; caspase hit class no change; viability robust z-score -0.06; caspase robust z-score -0.64; inactive.

After knock-down of CCNJL, the screen gave viability hit class no change; caspase hit class no change; viability robust z-score -3.66; caspase robust z-score 1.46; inactive. For TSSK3 the deposit lists viability hit class no change; caspase hit class no change; viability robust z-score 0.3; caspase robust z-score 0.26; inactive. NEURL4 gave viability hit class no change; caspase hit class no change; viability robust z-score 0.84; caspase robust z-score 0.5; inactive. After knock-down of ZNF540 the results were viability hit class no change; caspase hit class no change; viability robust z-score 0.49; caspase robust z-score -0.16; inactive. Silencing of VCP gave: viability hit class no change; caspase hit class no change; viability robust z-score -2.87; caspase robust z-score 3.08; inactive. Against FOXR2, the entry reads viability hit class no change; caspase hit class no change; viability robust z-score -0.32; caspase robust z-score -0.95; inactive.

Limited to “viability hit class” (2 entries from above):
CCNJL: no change
TSSK3: no change
